# Laboratory results as given in the supplement of paper PMC8728848.
# This is one part of the list.
# B1: FimA-N2 (Actinomyces oris) (protein)
# chain: MHHHHHHSSGVDLGTENLYFQSNAWIYDVNVYPKNEAIDVDKTIQAQKLNGYGVGSLIKFPVESTAPTLDAKSFYKYFQLKDTLDERLSEVTATDVSLEGTPLQPTDYKVETKQQTVTVTFTAEGLKKIKAAPGKKVSAVFQGKVTKAGNGAITNRAQVISDTLYAEQPPTPETPPTDPENPPTSDEVISRWGDLSIKKVDTHQQGQTKA
# Legend:
# Experiment in all cases: glycan array binding signal (z-score within array); higher = stronger binding
# Conditions in all cases: glycan notation: IUPAC condensed, linker removed
# [1] = target: GlcNAc(b1-2)[GlcNAc(b1-4)]Man(a1-3)[GlcNAc(b1-4)][GlcNAc(b1-2)[GlcNAc(b1-6)]Man(a1-6)]Man(b1-4)GlcNAc(b1-4)GlcNAc
# In short: (§1)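 Arrays were curated from the Consortium for Functional Glycomics database, 3228 in total, and kept only where the protein sequence was available. Binding is expressed as a within-array Z-score. This score was averaged across arrays of the same protein sequence at different concentrations or buffers and across linkers, and negative values can be read as non-binding.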
# [2] = target: GlcNAc(b1-2)[GlcNAc(b1-4)]Man(a1-3)[GlcNAc(b1-4)][GlcNAc(b1-2)[GlcNAc(b1-6)]Man(a1-6)]Man(b1-4)GlcNAc(b1-4)[Fuc(a1-6)]GlcNAc
# In short: as §1
# [3] = target: GlcNAc(b1-2)[GlcNAc(b1-6)]Man(a1-6)[GlcNAc(b1-2)Man(a1-3)]Man(b1-4)GlcNAc(b1-4)GlcNAc
# In short: as §1
# [4] = target: GlcNAc(b1-2)[GlcNAc(b1-6)]Man(a1-6)[GlcNAc(b1-2)Man(a1-3)]Man(b1-4)GlcNAc(b1-4)[Fuc(a1-6)]GlcNAc
# In short: as §1
# [5] = target: GlcNAc(b1-2)[GlcNAc(b1-6)]Man(a1-6)[GlcNAc(b1-4)][GlcNAc(b1-2)Man(a1-3)]Man(b1-4)GlcNAc(b1-4)GlcNAc
# In short: as §1
# [6] = target: GlcNAc(b1-3)Fuc
# In short: as §1
# [7] = target: GlcNAc(b1-3)Gal
# In short: as §1
# [8] = target: GlcNAc(b1-3)Gal(b1-3)GalNAc
# In short: as §1
# [9] = target: GlcNAc(b1-3)Gal(b1-4)Glc
# In short: as §1
# [10] = target: GlcNAc(b1-3)Gal(b1-4)GlcNAc
# In short: as §1
# [11] = target: GlcNAc(b1-3)Gal(b1-4)GlcNAc(b1-2)Man(a1-3)[GlcNAc(b1-3)Gal(b1-4)GlcNAc(b1-2)Man(a1-6)]Man(b1-4)GlcNAc(b1-4)GlcNAc
# In short: as §1
# [12] = target: GlcNAc(b1-3)Gal(b1-4)GlcNAc(b1-2)Man(a1-3)[GlcNAc(b1-3)Gal(b1-4)GlcNAc(b1-2)Man(a1-6)]Man(b1-4)GlcNAc(b1-4)[Fuc(a1-6)]GlcNAc
# In short: as §1
# [13] = target: GlcNAc(b1-3)Gal(b1-4)GlcNAc(b1-2)[GlcNAc(b1-3)Gal(b1-4)GlcNAc(b1-6)]Man(a1-6)[GlcNAc(b1-3)Gal(b1-4)GlcNAc(b1-2)Man(a1-3)]Man(b1-4)GlcNAc(b1-4)GlcNAc
# In short: as §1
# [14] = target: GlcNAc(b1-3)Gal(b1-4)GlcNAc(b1-3)Gal(b1-4)GlcNAc
# In short: as §1
# [15] = target: GlcNAc(b1-3)Gal(b1-4)GlcNAc(b1-3)Gal(b1-4)GlcNAc(b1-2)Man(a1-3)[GlcNAc(b1-3)Gal(b1-4)GlcNAc(b1-3)Gal(b1-4)GlcNAc(b1-2)Man(a1-6)]Man(b1-4)GlcNAc(b1-4)GlcNAc
# In short: as §1
# [16] = target: GlcNAc(b1-3)Gal(b1-4)GlcNAc(b1-3)Gal(b1-4)GlcNAc(b1-2)Man(a1-3)[GlcNAc(b1-3)Gal(b1-4)GlcNAc(b1-3)Gal(b1-4)GlcNAc(b1-2)Man(a1-6)]Man(b1-4)GlcNAc(b1-4)[Fuc(a1-6)]GlcNAc
# In short: as §1
# [17] = target: GlcNAc(b1-3)Gal(b1-4)GlcNAc(b1-3)Gal(b1-4)GlcNAc(b1-2)[GlcNAc(b1-3)Gal(b1-4)GlcNAc(b1-3)Gal(b1-4)GlcNAc(b1-6)]Man(a1-6)[GlcNAc(b1-3)Gal(b1-4)GlcNAc(b1-3)Gal(b1-4)GlcNAc(b1-2)Man(a1-3)]Man(b1-4)GlcNAc(b1-4)[Fuc(a1-6)]GlcNAc
# In short: as §1
# [18] = target: GlcNAc(b1-3)Gal(b1-4)GlcNAc(b1-3)Gal(b1-4)GlcNAc(b1-3)Gal(b1-4)GlcNAc(b1-2)Man(a1-3)[GlcNAc(b1-3)Gal(b1-4)GlcNAc(b1-3)Gal(b1-4)GlcNAc(b1-3)Gal(b1-4)GlcNAc(b1-2)Man(a1-6)]Man(b1-4)GlcNAc(b1-4)GlcNAc
# In short: as §1
# [19] = target: GlcNAc(b1-3)Gal(b1-4)GlcNAc(b1-3)Gal(b1-4)GlcNAc(b1-3)Gal(b1-4)GlcNAc(b1-2)Man(a1-3)[GlcNAc(b1-3)Gal(b1-4)GlcNAc(b1-3)Gal(b1-4)GlcNAc(b1-3)Gal(b1-4)GlcNAc(b1-2)Man(a1-6)]Man(b1-4)GlcNAc(b1-4)[Fuc(a1-6)]GlcNAc
# In short: as §1
# [20] = target: GlcNAc(b1-3)Gal(b1-4)GlcNAc(b1-3)Gal(b1-4)GlcNAc(b1-3)Gal(b1-4)GlcNAc(b1-2)[GlcNAc(b1-3)Gal(b1-4)GlcNAc(b1-3)Gal(b1-4)GlcNAc(b1-3)Gal(b1-4)GlcNAc(b1-6)]Man(a1-6)[GlcNAc(b1-3)Gal(b1-4)GlcNAc(b1-3)Gal(b1-4)GlcNAc(b1-3)Gal(b1-4)GlcNAc(b1-2)Man(a1-3)]Man(b1-4)GlcNAc(b1-4)[Fuc(a1-6)]GlcNAc
# In short: as §1
# [21] = target: GlcNAc(b1-3)Gal(b1-4)GlcNAc(b1-3)Gal(b1-4)GlcNAc(b1-3)Gal(b1-4)GlcNAc(b1-3)Gal(b1-4)GlcNAc(b1-2)Man(a1-3)[GlcNAc(b1-3)Gal(b1-4)GlcNAc(b1-3)Gal(b1-4)GlcNAc(b1-3)Gal(b1-4)GlcNAc(b1-3)Gal(b1-4)GlcNAc(b1-2)Man(a1-6)]Man(b1-4)GlcNAc(b1-4)GlcNAc
# In short: as §1
# [22] = target: GlcNAc(b1-3)Gal(b1-4)GlcNAc(b1-3)Gal(b1-4)GlcNAc(b1-3)Gal(b1-4)GlcNAc(b1-3)Gal(b1-4)GlcNAc(b1-2)Man(a1-3)[GlcNAc(b1-3)Gal(b1-4)GlcNAc(b1-3)Gal(b1-4)GlcNAc(b1-3)Gal(b1-4)GlcNAc(b1-3)Gal(b1-4)GlcNAc(b1-2)Man(a1-6)]Man(b1-4)GlcNAc(b1-4)[Fuc(a1-6)]GlcNAc
# In short: as §1
# [23] = target: GlcNAc(b1-3)Gal(b1-4)GlcNAc(b1-3)Gal(b1-4)GlcNAc(b1-3)Gal(b1-4)GlcNAc(b1-3)Gal(b1-4)GlcNAc(b1-2)[GlcNAc(b1-3)Gal(b1-4)GlcNAc(b1-3)Gal(b1-4)GlcNAc(b1-3)Gal(b1-4)GlcNAc(b1-3)Gal(b1-4)GlcNAc(b1-6)]Man(a1-6)[GlcNAc(b1-3)Gal(b1-4)GlcNAc(b1-3)Gal(b1-4)GlcNAc(b1-3)Gal(b1-4)GlcNAc(b1-3)Gal(b1-4)GlcNAc(b1-2)Man(a1-3)]Man(b1-4)GlcNAc(b1-4)[Fuc(a1-6)]GlcNAc
# In short: as §1
binder,measurement,setting,value
B1,glycan array binding signal (z-score),[1],-1.24
same,glycan array binding signal (z-score),[2],-0.355
same,glycan array binding signal (z-score),[3],0.506
same,glycan array binding signal (z-score),[4],0.065
same,glycan array binding signal (z-score),[5],-1
same,glycan array binding signal (z-score),[6],-0.215
same,glycan array binding signal (z-score),[7],-0.666
same,glycan array binding signal (z-score),[8],0.241
same,glycan array binding signal (z-score),[9],0.135
same,glycan array binding signal (z-score),[10],0.299
same,glycan array binding signal (z-score),[11],-0.627
same,glycan array binding signal (z-score),[12],1.07
same,glycan array binding signal (z-score),[13],0.771
same,glycan array binding signal (z-score),[14],0.008
same,glycan array binding signal (z-score),[15],0.158
same,glycan array binding signal (z-score),[16],-0.07
same,glycan array binding signal (z-score),[17],0.41
same,glycan array binding signal (z-score),[18],-0.122
same,glycan array binding signal (z-score),[19],1.93
same,glycan array binding signal (z-score),[20],-0.448
same,glycan array binding signal (z-score),[21],-0.523
same,glycan array binding signal (z-score),[22],-0.772
same,glycan array binding signal (z-score),[23],0.564

# 2 entries from above in a different format.
binder | measurement | setting | value
B1 | glycan array binding signal (z-score) | [1] | -1.24
same | glycan array binding signal (z-score) | [2] | -0.355
